Reference: patent publication US20240108722A1, “TUMOR-INFILTRATING LYMPHOCYTES WITH MEMBRANE BOUND INTERLEUKIN 15 AND USES THEREOF” (OBSIDIAN THERAPEUTICS, INC., priority 2021, published 2024)
No constants are given. Whether binding was seen depends on the method and setting. Some entries that bind do so weakly or less than the wild type.

Chains of the proteins cited; added tags and fusions are not shown. Residues count along the entry.
UniProt Q13261, residues 31-205: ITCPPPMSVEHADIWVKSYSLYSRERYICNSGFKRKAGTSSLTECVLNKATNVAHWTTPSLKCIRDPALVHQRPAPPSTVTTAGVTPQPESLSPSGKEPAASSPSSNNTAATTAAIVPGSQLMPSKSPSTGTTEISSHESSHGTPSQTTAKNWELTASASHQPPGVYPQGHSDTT

Target: constitutive membrane-bound IL15 (OT-IL15-292) expressed on TILs (human)
Assay: flow cytometry on transduced TILs, biotinylated IL15RaFc with streptavidin-BV421

binding: binds
Substance: IL15RaFc-Biotin (ACRO Biosystems) (from UniProt Q13261 31-205) (Fc fusion)
